{"source": "paper PMC5177663", "about": "(Frontiers in Pharmacology, 2016)", "test": "pharmacokinetics study, plasma concentrations by LC/MS-MS", "conditions": "middle-aged mice", "method": "The sampling times are 30 min, 1, 2, 4, and 6 h. In each mouse, two time points of blood sampling were performed. Plasma was extracted from the blood sample by centrifugation (+4°C, 3000 g, 10 min) and stored at -80°C. Then, plasma samples were sent in dry ice to MDS (MDS Pharma Services, Switzerland) for the pharmacokinetic analysis."}
{"smiles": "COc1cc2c(cc1OC)C(=O)C(CC1CCN(Cc3ccccc3)CC1)C2", "note": "(centres unmarked) [Donepezil, reference compound]", "values": [{"measurement": "maximal plasma concentrations with versus without co-administration of S 38093", "setting": "Donepezil 0.3 mg/kg", "result": "similar"}, {"measurement": "plasma exposure when administered as a combination", "setting": "combination versus compound alone", "result": "no increase"}]}
